Laboratory results: PubChem BioAssay AID652243 (Drosophila RNAi Screening Center, 2013)
The screen tested about 24,000 reagents; shown is a random part of those with a known target gene and a result. Of all reagents, 246 (1%) are marked active. 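Plates not normalised; calls are printed but the firefly/Renilla ratio behind them is not deposited; fold cut for lowering reported inconsistently.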 The raw values are shown without normalisation. A plus sign joins genes that one reagent is predicted to hit. No sequences are given here. Not given: the amount of reagent.

Aim: 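Fly regulators of androgen-dependent reporter output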 (primary screen)
System: Drosophila S2R+ cells
Knock-down reagent: long dsRNA against Drosophila genes
Timing: 72 h (48 h, then 24 h hormone)
Challenge: synthetic androgen R1881 at 10 nM for 24 h
Detection: 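Firefly light from an androgen-responsive reporter and Renilla control light per well, raw and unnormalised, for each of two replicates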
Reading the numbers: firefly reporter light: higher = more light from androgen-responsive reporter; Renilla control light: higher = more constitutive control signal (cell number, transfection)
Hit rule: 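Across duplicate plates, a knock-down whose log firefly/Renilla ratio shifted a set fold down or up from the GFP/LacZ control mean was a hit; the downward cut appears as both 1.5 and 3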
Meaning of the calls: active = hit: reporter lowered or raised; inactive = no hit

| Gene | dsRNA | firefly reporter light, replicate 1 | firefly reporter light, replicate 2 | Renilla control light, replicate 1 | Renilla control light, replicate 2 | activity call |
| --- | --- | --- | --- | --- | --- | --- |
| NtR (GeneID 43935) | DRSC04628 | 2.96e5 | 4.36e5 | 2.04e6 | 1.33e6 | inactive |
| NtR (GeneID 43935) | DRSC27686 | 1.54e5 | 2.36e5 | 7.03e5 | 8.56e5 | inactive |
| TwdlV (GeneID 40537) | DRSC24972 | 1.11e6 | 9.92e5 | 8.56e5 | 1.04e6 | inactive |
| sca (GeneID 36411) | DRSC07677 | 1.56e5 | 1.37e5 | 1.04e6 | 9.73e5 | inactive |
| sca (GeneID 36411) | DRSC29515 | 2.67e5 | 4.31e5 | 6.29e5 | 6.29e5 | inactive |
| CG15353 (GeneID 50191) | DRSC00383 | 1.08e5 | 1.17e5 | 6.77e5 | 5.77e5 | inactive |
| CG15353 (GeneID 50191) | DRSC24727 | 7.17e5 | 4.76e5 | 8.41e5 | 8.74e5 | inactive |
| CG30431 (GeneID 35549) | DRSC04902 | 1.05e6 | 8.03e5 | 2.57e6 | 2.48e6 | inactive |
| CG30431 (GeneID 35549) | DRSC04904 | 4.18e5 | 2.78e5 | 2.90e6 | 1.83e6 | inactive |
| kay (GeneID 3772082) | DRSC13962 | 1.99e6 | 1.12e6 | 2.50e6 | 1.22e6 | inactive |
| kay (GeneID 3772082) | DRSC16977 | 86086 | 59848 | 5.14e5 | 3.17e5 | inactive |
| Rad60 (GeneID 42748) | DRSC15580 | 1.41e5 | 2.19e5 | 2.28e6 | 2.56e6 | inactive |
| CG15369 (GeneID 31862) | DRSC18041 | 2.01e5 | 2.77e5 | 1.68e6 | 1.95e6 | inactive |
| CG14933 + CG42486 | DRSC02415 | 3.18e5 | 2.12e5 | 2.38e6 | 1.94e6 | inactive |
| Cpr97Eb (GeneID 43259) | DRSC15123 | 2.53e5 | 2.44e5 | 3.37e6 | 3.41e6 | inactive |
| ND-ACP (GeneID 38154) | DRSC08724 | 1.07e5 | 1.45e5 | 1.14e6 | 1.23e6 | inactive |
| PEK (GeneID 40653) | DRSC12361 | 30668 | 54639 | 3.29e5 | 2.35e5 | active |
| PEK (GeneID 40653) | DRSC36912 | – | – | – | – | inactive |
| PEK (GeneID 40653) | DRSC36913 | – | – | – | – | inactive |
| CG15734 (GeneID 32177) | DRSC19701 | 4.90e5 | 4.44e5 | 3.83e6 | 3.92e6 | inactive |
| CG31287 (GeneID 318663) | DRSC13138 | 1.40e5 | 1.22e5 | 2.02e5 | 2.96e5 | inactive |
| CG11882 (GeneID 43446) | DRSC14425 | 1.34e5 | 1.27e5 | 2.08e6 | 2.15e6 | inactive |
| CG11882 (GeneID 43446) | DRSC27909 | 6.18e5 | 3.87e5 | 2.11e6 | 1.40e6 | inactive |
| Adgf-A2 (GeneID 64879) | DRSC09507 | 2.50e5 | 81520 | 3.32e5 | 1.69e5 | inactive |
| Whamy (GeneID 41198) | DRSC14574 | 1.26e5 | 1.56e5 | 2.52e6 | 1.52e6 | inactive |
| Whamy (GeneID 41198) | DRSC28119 | 5.41e5 | 5.75e5 | 1.59e6 | 1.34e6 | inactive |
| CG30195 (GeneID 37592) | DRSC04155 | 3.10e5 | 4.67e5 | 1.99e6 | 2.00e6 | inactive |
| mRpL16 (GeneID 31150) | DRSC18550 | 97601 | 81035 | 1.14e6 | 6.70e5 | inactive |
| mRpL16 (GeneID 31150) | DRSC29510 | 2.94e5 | 4.77e5 | 6.38e5 | 6.38e5 | inactive |
| mEFG1 (GeneID 34004) | DRSC02758 | 2.04e5 | 1.41e5 | 1.23e6 | 9.98e5 | inactive |
| CG13722 (GeneID 38555) | DRSC08331 | 2.35e5 | 2.30e5 | 2.19e6 | 2.60e6 | inactive |
| CG13722 (GeneID 38555) | DRSC21616 | 9.25e5 | 7.57e5 | 3.68e6 | 2.76e6 | inactive |
| CG13722 (GeneID 38555) | DRSC24663 | 8.69e5 | 6.78e5 | 7.61e5 | 6.72e5 | inactive |
| Fie (GeneID 38452) | DRSC08158 | 1.06e6 | 4.65e5 | 1.99e6 | 8.52e5 | inactive |
| Ggamma30A (GeneID 45234) | DRSC02715 | 2.12e5 | 2.21e5 | 1.40e6 | 1.65e6 | inactive |
| Ggamma30A (GeneID 45234) | DRSC03331 | 1.70e5 | 1.88e5 | 1.49e6 | 1.33e6 | inactive |
| unc-13-4A (GeneID 38801) | DRSC10201 | 3.83e5 | 2.48e5 | 3.68e6 | 3.55e6 | inactive |
| unc-13-4A (GeneID 38801) | DRSC10202 | 2.25e5 | 2.01e5 | 2.14e6 | 1.95e6 | inactive |
| unc-13-4A (GeneID 38801) | DRSC11013 | 1.35e5 | 1.59e5 | 1.57e6 | 1.98e6 | inactive |
| CG8012 (GeneID 50305) | DRSC10951 | 3.42e5 | 2.52e5 | 4.01e6 | 2.96e6 | inactive |
| CG11449 (GeneID 40467) | DRSC11662 | 2.20e5 | 1.53e5 | 2.06e6 | 1.66e6 | inactive |
| CG11449 (GeneID 40467) | DRSC29180 | 5.49e5 | 3.88e5 | 1.20e6 | 9.38e5 | inactive |
| Tip60 (GeneID 31362) | DRSC18661 | 1.74e5 | 1.90e5 | 9.36e5 | 8.41e5 | inactive |
| MFS14 (GeneID 46085) | DRSC06524 | 5.77e5 | 7.36e5 | 1.70e6 | 2.35e6 | inactive |
| MFS14 (GeneID 46085) | DRSC29787 | 3.30e5 | 3.32e5 | 6.89e5 | 5.60e5 | inactive |
| CG11929 (GeneID 33668) | DRSC00339 | 89664 | 54674 | 5.68e5 | 4.41e5 | inactive |
| rtp (GeneID 40627) | DRSC12132 | 39332 | 53089 | 4.54e5 | 4.74e5 | inactive |
| Calx (GeneID 42481) | DRSC13457 | 2.73e5 | 2.52e5 | 4.34e5 | 6.11e5 | inactive |
| Calx (GeneID 42481) | DRSC13459 | 2.72e5 | 1.89e5 | 4.41e5 | 4.77e5 | inactive |
| Calx (GeneID 42481) | DRSC16599 | 2.34e5 | 2.52e5 | 3.69e6 | 3.60e6 | inactive |
| Calx (GeneID 42481) | DRSC21850 | 5.17e5 | 4.05e5 | 8.69e5 | 7.58e5 | inactive |
| Calx (GeneID 42481) | DRSC24386 | 8.36e5 | 7.82e5 | 1.02e6 | 9.34e5 | inactive |
| Clk (GeneID 38872) | DRSC11117 | 1.02e5 | 1.05e5 | 1.64e6 | 1.36e6 | inactive |
| CG13679 (GeneID 38919) | DRSC10037 | 4.64e5 | 4.09e5 | 1.92e6 | 2.09e6 | inactive |
| CG13679 (GeneID 38919) | DRSC22749 | 1.06e6 | 1.09e6 | 5.59e5 | 4.63e5 | inactive |
| CG16721 (GeneID 31520) | DRSC18113 | 1.03e5 | 87488 | 8.46e5 | 6.03e5 | inactive |
| CG9826 (GeneID 37625) | DRSC04570 | 2.98e5 | 2.64e5 | 2.03e6 | 1.76e6 | inactive |
| tal-1A + tal-2A + tal-AA + 1 more | DRSC12992 | 93829 | 76919 | 90531 | 2.26e5 | inactive |

Entries listed so far whose target name starts with S or s (2):
| Gene | dsRNA | firefly reporter light, replicate 1 | firefly reporter light, replicate 2 | Renilla control light, replicate 1 | Renilla control light, replicate 2 | activity call |
| --- | --- | --- | --- | --- | --- | --- |
| sca (GeneID 36411) | DRSC07677 | 1.56e5 | 1.37e5 | 1.04e6 | 9.73e5 | inactive |
| sca (GeneID 36411) | DRSC29515 | 2.67e5 | 4.31e5 | 6.29e5 | 6.29e5 | inactive |
